Results deposited as PubChem BioAssay AID1259308 (NCATS, 2017)
In all, the deposit lists about 59,000 reagents; this is a random part of them. In the full data, about 1,510 (2.6%) are marked active. 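Calls use total luciferase alone and ignore viability, so some active siRNAs may act by altering cell number.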 Unmarked entries are inactive. Reagents against one gene are numbered here. Not all columns of the deposit are shown.

Purpose: 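Candidate targets for better recombinant protein yield in mammalian cells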 (primary screen)
Cells: human HEK293 embryonic kidney cells stably expressing firefly luciferase (HEK-CMV-Luc2-Hygro)
Knock-down reagent: single siRNA against human genes, 0.8 pmol siRNA per well
Time to read-out: 72 h
Measured: 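Reporter luminescence and viable-cell signal on separate replicate plates, given as percent of non-targeting control and median/MAD z-scores, plus per-cell luciferase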
Scale: total luciferase, z-score: higher = more reporter protein produced
Hit rule: 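Active when the median/MAD z-score for overall luciferase is greater than 3; a gene was taken forward for validation with new siRNAs if at least two of its three siRNAs passed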
Calls: active = raised luciferase; inactive = no rise

total luciferase, z-score, by gene and reagent
VKORC1L1: #1 -1.62; #2 0.0613; #3 0.148
SUCLG2P2: #1 -0.346; #2 -0.172; #3 -0.658
HIVEP1: #1 0.879; #2 0.61; #3 1.88
GAL3ST3: #1 0.471; #2 1.03; #3 -1.33
LOC642947 (retired record): #1 3.97 (active); #2 0.539; #3 1.96
PSMB1: #1 -0.893; #2 3.54 (active); #3 0.863
ZNF34: #1 1.82; #2 0.092; #3 2.51
SLC48A1: #1 -0.453; #2 -0.0282; #3 -0.158
ZNF365: #1 -2.59; #2 1.35; #3 0.533
HEXIM2: #1 0.198; #2 1; #3 -0.358
SIRT7: #1 -1.89; #2 -0.0186; #3 -0.701
ARSF: #1 -0.756; #2 -0.576; #3 -0.777
CCNO: #1 -1.49; #2 -0.162; #3 -0.679

Look-ups from the entries so far:
For “total luciferase, z-score”, PSMB1 #1 reads -0.893
LOC642947 (retired record) #2, total luciferase, z-score → 0.539
ZNF365 #2, total luciferase, z-score: 1.35
GAL3ST3 #2, total luciferase, z-score = 1.03
